The source of these data is paper PMC6030175, “A senataxin-associated exonuclease SAN1 is required for resistance to DNA interstrand cross-links”.

By UniProt entry, the sequences of proteins in these tests, tags left out. Where a name states a change or a piece, a line headed by the entry shows the natural chain unless it says otherwise.
UniProt Q96EK7: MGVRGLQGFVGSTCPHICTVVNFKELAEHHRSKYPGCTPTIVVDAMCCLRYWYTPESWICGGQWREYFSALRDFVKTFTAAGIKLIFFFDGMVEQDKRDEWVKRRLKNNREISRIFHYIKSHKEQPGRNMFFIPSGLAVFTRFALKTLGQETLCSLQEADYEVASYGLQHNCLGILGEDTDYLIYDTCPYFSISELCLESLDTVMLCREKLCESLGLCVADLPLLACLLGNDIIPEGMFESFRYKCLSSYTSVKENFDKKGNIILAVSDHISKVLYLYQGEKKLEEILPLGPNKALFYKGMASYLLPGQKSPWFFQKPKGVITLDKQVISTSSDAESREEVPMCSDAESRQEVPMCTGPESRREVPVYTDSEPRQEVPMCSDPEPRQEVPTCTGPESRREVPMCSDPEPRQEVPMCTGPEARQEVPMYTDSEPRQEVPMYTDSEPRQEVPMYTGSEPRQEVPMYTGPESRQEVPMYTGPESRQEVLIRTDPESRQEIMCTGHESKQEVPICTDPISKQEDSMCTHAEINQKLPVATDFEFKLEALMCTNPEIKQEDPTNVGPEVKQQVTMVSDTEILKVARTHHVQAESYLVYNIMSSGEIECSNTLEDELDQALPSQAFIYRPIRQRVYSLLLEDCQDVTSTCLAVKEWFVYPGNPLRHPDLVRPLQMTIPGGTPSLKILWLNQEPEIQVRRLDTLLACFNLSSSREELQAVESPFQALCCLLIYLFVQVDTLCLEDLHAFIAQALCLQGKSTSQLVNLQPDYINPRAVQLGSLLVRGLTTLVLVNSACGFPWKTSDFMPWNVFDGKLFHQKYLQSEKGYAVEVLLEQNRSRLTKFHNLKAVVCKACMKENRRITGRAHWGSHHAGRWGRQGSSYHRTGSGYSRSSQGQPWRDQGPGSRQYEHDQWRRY
UniProt Q7Z333: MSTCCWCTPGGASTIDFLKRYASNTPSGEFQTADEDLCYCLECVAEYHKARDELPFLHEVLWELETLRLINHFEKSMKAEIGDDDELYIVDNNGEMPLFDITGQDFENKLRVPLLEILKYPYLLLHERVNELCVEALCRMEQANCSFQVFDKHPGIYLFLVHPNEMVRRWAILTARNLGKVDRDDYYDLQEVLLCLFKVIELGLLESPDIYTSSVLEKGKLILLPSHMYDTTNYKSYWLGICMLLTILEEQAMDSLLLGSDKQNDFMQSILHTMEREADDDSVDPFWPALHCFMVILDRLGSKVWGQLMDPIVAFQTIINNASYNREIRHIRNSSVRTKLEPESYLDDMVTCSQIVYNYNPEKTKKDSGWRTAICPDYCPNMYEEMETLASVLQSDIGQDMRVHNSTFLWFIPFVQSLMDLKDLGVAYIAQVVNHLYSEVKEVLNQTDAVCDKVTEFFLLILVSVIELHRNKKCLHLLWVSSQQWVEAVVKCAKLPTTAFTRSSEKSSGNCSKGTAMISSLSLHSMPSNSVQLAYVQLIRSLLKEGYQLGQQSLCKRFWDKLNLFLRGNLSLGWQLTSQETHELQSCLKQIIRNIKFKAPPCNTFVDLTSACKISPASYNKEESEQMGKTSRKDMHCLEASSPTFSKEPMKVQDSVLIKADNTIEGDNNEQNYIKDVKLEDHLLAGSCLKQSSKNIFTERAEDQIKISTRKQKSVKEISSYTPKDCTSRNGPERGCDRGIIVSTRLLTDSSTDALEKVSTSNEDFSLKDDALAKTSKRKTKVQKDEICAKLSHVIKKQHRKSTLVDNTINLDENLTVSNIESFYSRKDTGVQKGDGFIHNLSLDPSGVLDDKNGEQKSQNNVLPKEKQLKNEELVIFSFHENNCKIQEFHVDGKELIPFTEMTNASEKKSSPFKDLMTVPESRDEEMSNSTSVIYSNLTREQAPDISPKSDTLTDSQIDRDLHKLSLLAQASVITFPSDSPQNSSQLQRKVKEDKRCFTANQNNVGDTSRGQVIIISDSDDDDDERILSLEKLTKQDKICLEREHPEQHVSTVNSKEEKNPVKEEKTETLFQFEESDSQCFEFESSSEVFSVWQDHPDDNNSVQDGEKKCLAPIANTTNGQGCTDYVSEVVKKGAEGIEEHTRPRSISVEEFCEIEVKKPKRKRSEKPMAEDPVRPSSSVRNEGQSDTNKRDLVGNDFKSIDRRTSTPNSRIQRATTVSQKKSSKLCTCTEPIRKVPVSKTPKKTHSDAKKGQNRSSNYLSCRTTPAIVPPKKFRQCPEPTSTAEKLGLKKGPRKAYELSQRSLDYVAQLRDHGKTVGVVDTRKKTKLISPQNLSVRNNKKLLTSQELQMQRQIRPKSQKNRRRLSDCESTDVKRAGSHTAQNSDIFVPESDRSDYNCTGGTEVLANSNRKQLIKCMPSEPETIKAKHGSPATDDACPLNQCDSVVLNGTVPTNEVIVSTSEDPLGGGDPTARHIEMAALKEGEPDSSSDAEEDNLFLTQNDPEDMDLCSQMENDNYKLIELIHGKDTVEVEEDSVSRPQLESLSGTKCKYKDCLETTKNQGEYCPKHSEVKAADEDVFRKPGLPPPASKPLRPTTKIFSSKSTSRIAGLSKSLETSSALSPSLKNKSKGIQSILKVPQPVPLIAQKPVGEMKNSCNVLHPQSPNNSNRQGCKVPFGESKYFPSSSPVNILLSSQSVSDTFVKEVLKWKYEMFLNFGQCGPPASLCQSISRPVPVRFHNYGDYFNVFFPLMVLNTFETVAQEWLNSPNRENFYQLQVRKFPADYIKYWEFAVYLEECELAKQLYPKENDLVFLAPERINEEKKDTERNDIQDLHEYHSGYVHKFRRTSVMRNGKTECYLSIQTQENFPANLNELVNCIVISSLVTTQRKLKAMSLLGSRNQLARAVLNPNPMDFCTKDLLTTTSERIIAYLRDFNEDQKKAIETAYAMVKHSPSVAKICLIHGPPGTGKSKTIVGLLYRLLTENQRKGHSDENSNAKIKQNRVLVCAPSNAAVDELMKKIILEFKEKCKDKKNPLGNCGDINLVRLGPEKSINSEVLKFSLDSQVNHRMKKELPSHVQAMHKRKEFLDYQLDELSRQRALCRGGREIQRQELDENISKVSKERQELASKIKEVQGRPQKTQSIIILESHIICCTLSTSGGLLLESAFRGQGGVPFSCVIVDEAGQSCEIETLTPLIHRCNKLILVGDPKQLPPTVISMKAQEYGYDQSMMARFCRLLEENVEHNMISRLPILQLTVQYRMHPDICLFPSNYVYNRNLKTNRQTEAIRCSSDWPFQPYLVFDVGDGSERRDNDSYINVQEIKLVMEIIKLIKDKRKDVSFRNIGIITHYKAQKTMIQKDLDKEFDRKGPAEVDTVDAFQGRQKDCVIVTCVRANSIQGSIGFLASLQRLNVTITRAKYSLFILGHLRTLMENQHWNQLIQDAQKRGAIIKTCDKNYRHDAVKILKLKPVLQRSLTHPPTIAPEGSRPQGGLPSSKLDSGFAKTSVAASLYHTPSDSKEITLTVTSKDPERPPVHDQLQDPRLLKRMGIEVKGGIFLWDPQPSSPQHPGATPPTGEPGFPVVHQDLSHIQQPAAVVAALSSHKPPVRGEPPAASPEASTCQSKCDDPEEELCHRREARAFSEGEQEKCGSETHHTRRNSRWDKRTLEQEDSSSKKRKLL

No constants are given. Whether binding was seen depends on the method and setting. Binding seen in cells or lysates may run through a third protein. For some assays here: Where a sequence is shown, tags or fusion partners need not be part of it.

Assay [1] concerns the target SAN1ΔRep-ssf (SAN1 lacking the central repeats region, Strep2-FLAG) (human) (UniProt Q96EK7). The experiment in a line: co-IP; soluble nuclear fraction of HeLa SETX-FLAG-GFP cells expressing SAN1-ssf or SAN1ΔRep-ssf, +/- 1 μM MMC; SAN1 captured on Strep-Tactin beads, eluted with desthiobiotin; immunoblot. Background: In western blotting, separated proteins are transferred to a membrane and probed.

Assay [2] addresses SAN1ΔRep-FLAG (SAN1 mutant lacking the central repeat region) (human) (UniProt Q96EK7). The assay is described as follows: co-IP; 293T cells co-transfected; lysis in 25 mM HEPES pH 7.4, 150 mM NaCl, 0.5% Triton-X 100; anti-FLAG M2 agarose 1 h at 4 °C; immunoblot for FLAG and Myc.

As for “Senataxin-FLAG-GFP (full length SETX-Flag-GFP) (from UniProt Q7Z333 1-2677)”, in assay [1], the binding entry is reported as “no binding”.

B1: Myc-mSETX fragment (myc-SETX-SID fragment) (domain or fragment, UniProt A2AKX3 876-1103)
chain: DKLQIQEGRADDDLVSFTEVTDTLVKAPCEGHVKMVVESRDKEMRESTALTSNLVEGQVPHDSSKPLVAGRQIDLCNITLISQTTVIQFPSGLSKQNSFQLQKGDKRCLTANQNSAATCRGQVIVISDSDEEEDEDEDERSSSEENIKQSKACIGKDCSEHRSLAVNASVEKQLVKEEERYPVEFEDSESQVFEFESSSEVFSVWQDHKIDSKNSLQGEQKSYVTHVA
As to B1, the binding entry in assay [2] was “no binding”.
